According to PubChem BioAssay AID2551 (National Center for Advancing Translational Sciences (NCATS), 2010):
Where “and” joins values, the source holds several entries; their conditions need not be identical. Identical values can stand only once. Screen size: about 310,000 compounds; about 17,000 (5.5%) were called active. The inconclusive results got no clear call from the source; some entries with a clear call stand among them for comparison. The call rests on the fitted dose curve; in most records, active means well fitted inhibition curve with a large enough effect; inconclusive means small, poorly fitted or top-dose-only effect, or effect the other way; inactive means no such curve, though single readings can be large or run the other way. Potencies of inconclusive entries are doubtful fits and often do not repeat.
Further: nearly all actives have a fitted effect of over 60% in size.
On the % scale 0 is the no-effect control and ±100 the full control effect; potency means the concentration at half of the fitted maximal effect.

Protein sequences, listed by entry. Tags and fused reporters are not part of them. Lines headed by an entry give the natural chain unless they say otherwise; changes in a name come on top.
UniProt P51450: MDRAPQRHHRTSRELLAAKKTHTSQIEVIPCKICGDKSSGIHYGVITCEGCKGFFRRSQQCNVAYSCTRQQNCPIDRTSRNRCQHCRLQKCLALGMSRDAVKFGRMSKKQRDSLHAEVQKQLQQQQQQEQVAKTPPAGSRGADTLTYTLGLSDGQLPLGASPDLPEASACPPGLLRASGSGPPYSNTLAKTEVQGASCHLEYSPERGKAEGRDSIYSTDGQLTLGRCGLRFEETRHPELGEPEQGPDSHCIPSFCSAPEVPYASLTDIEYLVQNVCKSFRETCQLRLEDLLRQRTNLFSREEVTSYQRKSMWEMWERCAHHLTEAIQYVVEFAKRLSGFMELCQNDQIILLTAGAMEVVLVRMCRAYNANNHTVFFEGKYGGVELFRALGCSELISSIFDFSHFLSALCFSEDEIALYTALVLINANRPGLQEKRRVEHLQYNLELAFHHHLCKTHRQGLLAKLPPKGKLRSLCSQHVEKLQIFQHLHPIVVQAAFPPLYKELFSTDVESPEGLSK

These molecules were tested against Nuclear receptor ROR-gamma (Mus musculus) (UniProt P51450) (assay: qHTS for inhibitors of ROR gamma transcriptional activity). Details: Drosophila S2 Gal4-RORgamma UAS-luciferase reporter, 20 h; activity change, negative = inhibition: at 53.6 µM (top of the series).
Outline: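 Using a luciferase readout, inhibitors were identified by reduced reporter activity in Drosophila cells coexpressing a copper-inducible Gal4–ROR gamma fusion and UAS-driven Photinus luciferase, incubated 20 hr after 700 uM copper sulfate.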
For `COc1ccc(NC(=O)Cn2nnc(C(=O)NCCc3ccccc3)c2N)c(OC)c1`, the Potency was inconclusive: 35.5 µM [inhibitor, single point].
With `CCn1cc(C(=O)NCc2ccccc2)c(=O)c2cc(F)c(N3CCN(C(=O)c4ccco4)CC3)cc21` the Potency was “inactive”.
For `O=C(O)c1cccc(NC(=S)NC(=O)c2ccc3ccccc3c2)c1`, the Potency was active: 10 µM.
`COc1ccccc1C1(CC(=O)Nc2nccs2)CCOC(C(C)C)C1` (stereo not given) was tested, and the Potency was active: 11.2 µM.
In the case of `CC1=C(C)/C(=N\OC(=O)/C=C/c2ccccc2)C=CC1=O`, the Potency is reported as inconclusive: 10 µM [inhibitor, partial curve].
In the case of `O=S(=O)(c1ccc(-n2cnnn2)cc1)N(C1CCCCC1)C1CCCCC1`, the Potency is reported as inconclusive: 7.94 µM [inhibitor, partial curve, poor fit].
`O=S(=O)(c1ccc(N=C2NN=C(c3cc(F)ccc3F)CS2)cc1)N1CCOCC1` was tested, and the Potency was “inactive”.
`O=C(c1cccc(F)c1)N(Cc1nc2ccccc2c(=O)[nH]1)C1CCCC1` was tested, and the Potency was active: 6.31 µM.
`COc1ccc(C2CC(c3cccs3)=Nc3ccccc3S2)cc1` (stereo not given) was tested, and the Potency was inconclusive: 31.6 µM [inhibitor, single point].
In the case of `C=CCc1cccc2cc(C(=O)Nc3ccc(CC(=O)O)cc3)c(=O)oc12`, the Potency is reported as active: 3.98 µM.
With `COc1ccc(CCNc2nc(-c3ccccn3)cs2)cc1OC` the Potency was inconclusive: 20 µM [inhibitor, partial curve].
With `CCCc1c(OCCCCc2nn[nH]n2)ccc(C(C)=O)c1O` the Potency was inconclusive: 12.6 µM [activator, partial curve] and inconclusive: 12.6 µM [activator, single point].
With `CC(C)Oc1ccc(C(=O)Nc2ncn[nH]2)cc1` the Potency was inconclusive: 35.5 µM [inhibitor, single point].
For `COc1cccc2cc(C(=O)Nc3cc(Cl)ccc3N3CCOCC3)c(=O)oc12`, the Potency was inconclusive: 0.0056 µM [activator, full curve, poor fit].
`COc1ccc(CCNC(=O)CSc2nnc(-c3cccc(C)c3)o2)cc1OC` was tested, and the Potency was “inactive”.
With `Cn1c(Cl)cnc1C1CC(=O)c2cc(Cl)ccc2O1` (stereo not given) the Potency was inconclusive: 22.4 µM [inhibitor, partial curve, poor fit].
With `COc1cc(/C=N/NC(=O)c2ccc3ccccc3c2)ccc1Oc1ccc([N+](=O)[O-])cn1` the Potency was inconclusive: 11.2 µM [activator, partial curve].
In the case of `O=C(COC(=O)c1ccccc1Br)NCCN1C(=O)CSC1=O`, the Potency is reported as inconclusive: 35.5 µM [activator, single point].
For `CNC(=O)/C(C#N)=C\c1ccc(CNS(=O)(=O)c2ccccc2)o1`, the Potency was “inactive”.
With `O=[N+]([O-])c1ccc(Oc2ccc(-c3cnc4ccccc4n3)cc2[N+](=O)[O-])cc1` the Potency was inconclusive: 2.24 µM [activator, full curve].
With `CCc1cc2c(C)cc(=O)oc2cc1OC(=O)C1CCCN1C(=O)OC(C)(C)C` (stereo not given) the Potency was “inactive”.
`CCOC(=O)c1cc2c(nc1NC(=S)NCc1ccccc1)CCCC2` was tested, and the Potency was active: 6.31 µM.
In the case of `Cc1ccc(N2CCN(C(=O)Nc3cccc([N+](=O)[O-])c3)CC2C)cc1` (stereo not given), the Potency is reported as inconclusive: 35.5 µM [activator, single point].
`CC(C)(C)Cc1nnc(NC(=O)c2ccc([N+](=O)[O-])cc2)s1` was tested, and the Potency was inconclusive: 15.8 µM [inhibitor, single point].
With `COc1ccc(NC(=O)C2CCC(=O)N2S(=O)(=O)c2ccc(C)cc2)cc1Cl` (stereo not given) the Potency was “inactive”.
In the case of `CCn1c(O)c(N=NC(=O)c2cccnc2)c2cc(Br)ccc21`, the Potency is reported as “inactive”.
`CS(=O)(=O)N(CC(=O)N1CCN(c2ccccc2)CC1)Cc1ccc(Cl)cc1` was tested, and the Potency was inconclusive: 35.5 µM [activator, single point].
`Cn1nc([N+](=O)[O-])nc1Oc1ccc(C(C)(C)C)cc1` was tested, and the Potency was inconclusive: 11.2 µM [activator, partial curve].
For `O=C(Nc1ccccc1)N1CCN(c2cccc(C(F)(F)F)c2)CC1`, the Potency was “inactive”.
For `CC(C)N(Cc1nc(-c2ccccc2)no1)C(=O)c1ccc([N+](=O)[O-])cc1`, the Potency was inconclusive: 11.2 µM [activator, partial curve].
`CCCn1c(N)c(C(=O)CSc2nc3ccccc3s2)c(=O)[nH]c1=O` was tested, and the Potency was inconclusive: 35.5 µM [activator, partial curve, poor fit].
`O=C(Nc1nc2c(cc3c4c(cccc42)CC3)s1)c1ccccc1Cl` was tested, and the Potency was active: 5.01 µM.
`O=C(NCc1ccco1)c1ccccc1O` was tested, and the Potency was inconclusive: 0.398 µM [activator, partial curve].
`Cc1ccc(N2C(=S)N=C(Nc3ccccc3C)C23CCOC(C)(C)C3)cc1` (stereo not given) was tested, and the Potency was active: 4.47 µM.
For `N#Cc1c(NC(=O)CSc2ncn[nH]2)sc2c1CCCCC2`, the Potency was active: 0.398 µM.
For `Cc1ccc(-c2cc(-c3ccccc3)[nH]c(=S)c2C#N)cc1`, the Potency was inconclusive: 12.6 µM [inhibitor, partial curve, poor fit].
For `CC1CC(CCC(=O)NC(=S)Nc2ccc(Cl)cn2)C(=O)O1` (stereo not given), the Potency was active: 11.2 µM.
In the case of `FC(F)(F)c1ccc(Cl)c(NC(=S)N/N=C/c2ccccc2Cl)c1`, the Potency is reported as active: 2.24 µM.
With `CCc1nnc(NC(=O)c2cccc(S(=O)(=O)N3CCc4ccccc43)c2)s1` the Potency was inconclusive: 31.6 µM [inhibitor, single point].
With `Cc1ccc(NC(=O)c2sccc2-n2cccc2)c(Cl)c1` the Potency was inconclusive: 35.5 µM [inhibitor, single point].
In the case of `CCOC(=O)N1CCN(CC(O)COC2CC(C)CC(C)(C)C2)CC1` (stereo not given), the Potency is reported as inconclusive: 10 µM [inhibitor, partial curve, poor fit].
With `CC(=O)OC[C@H]1O[C@@H](n2ccc(=O)[nH]c2=S)C(OC(C)=O)C1OC(C)=O` (stereo not given in full) the Potency was “inactive”.
With `COc1ccccc1N1CCN(C(=O)CN(C2CCCCC2)S(C)(=O)=O)CC1` the Potency was inconclusive: 4.47 µM [activator, full curve].
With `Cc1cc2n(n1)C(c1ccccc1)Nc1ccccc1-2` (stereo not given) the activity change, negative = inhibition was inactive: 38.2% [at 0.365 µM].
`CCCCCCCCCCOC(=O)Cn1c(COc2ccccc2OC)[n+](C)c2ccccc21` was tested, and the Potency was inconclusive: 10 µM [inhibitor, single point].
With `Cc1ccc(-c2nc(-c3ccncc3)no2)c(Cl)c1` the Potency was inconclusive: 0.126 µM [activator, single point].
`CCOC(=O)c1cc(S(=O)(=O)N(C)Cc2ccccc2)cn1C` was tested, and the Potency was “inactive”.
`COc1cc2c(O)c3c(c(-c4ccc5c(c4)OCO5)c2cc1OC)C(=O)OC3` was tested, and the Potency was inconclusive: 10 µM [activator, partial curve].
With `COc1ccccc1N1CCN(C(=O)CCS(=O)(=O)c2ccc3c(c2)NC(=O)C(C)S3)CC1` (stereo not given) the Potency was inconclusive: 31.6 µM [activator, single point].
With `COc1cccc(C(=O)NC2CCN(CC(=O)Nc3c(C)cc(C)cc3C)CC2)c1` the Potency was inconclusive: 11.2 µM [inhibitor, single point].
In the case of `Cc1ccc(-n2c(COc3ccccc3)n[nH]c2=S)cc1`, the Potency is reported as active: 2.51 µM.
In the case of `Cc1nc2ccc(NC(=O)c3cccs3)cc2s1`, the Potency is reported as inconclusive: 35.5 µM [activator, single point].
In the case of `CCC1=NN(C(=O)Cc2ccc([N+](=O)[O-])cc2)C(O)(C(F)(F)F)C1` (stereo not given), the Potency is reported as inconclusive: 2.82 µM [inhibitor, single point].
For `COc1ccccc1N1CCN(C(c2ccccc2Cl)c2nnnn2C(C)(C)C)CC1` (stereo not given), the Potency was inconclusive: 35.5 µM [inhibitor, single point].
With `CCN(CC)CCCN1C(=O)C(=O)/C(=C(/O)c2ccc(OC)c(Cl)c2)C1c1ccco1` (stereo not given) the Potency was inconclusive: 35.5 µM [inhibitor, single point].
`C=CCN(CC=C)S(=O)(=O)c1ccc(NC(=O)COc2ccccc2OC)cc1` was tested, and the Potency was inconclusive: 0.794 µM [activator, full curve, poor fit].
For `O=C(NCCCO)c1cc2c([nH]c3ccccc32)c(-c2ccc(F)cc2)n1`, the Potency was inconclusive: 35.5 µM [activator, single point].
For `C=CCNC(=S)NNc1ncnc2sc3c(c12)CC(C)(C)OC3`, the Potency was active: 1.26 µM.
With `Cc1ccc(NC(=S)NC(C)(C)C)c([N+](=O)[O-])c1` the Potency was active: 3.16 µM.
`CCCCC(=O)/C=C/n1c(=S)oc2ccccc21` was tested, and the Potency was inconclusive: 20 µM [inhibitor, single point].
`CC1CCN(CCCn2c(=S)[nH]c3c(sc4ccccc43)c2=O)CC1` was tested, and the Potency was active: 11.2 µM.
`NNc1nnc(-c2ccccc2)c(-c2ccccc2)n1` was tested, and the Potency was active: 11.2 µM.
With `O=C(CSc1ccccc1)Nc1nnc(COc2ccc(Cl)cc2)s1` the Potency was active: 11.2 µM.
In the case of `Cc1ccc(NC(=S)Nc2ccc3cn[nH]c3c2)cc1`, the Potency is reported as inconclusive: 31.6 µM [inhibitor, single point].
`CC(C)(C)N(Cc1ccccc1)C(=O)COC(=O)CCc1c[nH]c2ccccc12` was tested, and the Potency was inconclusive: 20 µM [activator, partial curve].
In the case of `CCCn1c(C)cc(C(=O)COC(=O)c2cc(S(=O)(=O)NCC(C)C)c(Cl)cc2Cl)c1C`, the Potency is reported as inconclusive: 10 µM [activator, partial curve].
For `COc1ccc(/C=N/OCC(=O)N=Nc2c(O)[nH]c3ccc(Br)cc23)cc1`, the Potency was “inactive”.
For `COc1ccc(-c2cc(-c3ccc(OC)cc3)c(C#N)c(SC)n2)cc1`, the Potency was inconclusive: 0.355 µM [activator, single point].
In the case of `C=C(C)COc1ccc(-c2n[nH]c(C)c2-c2ccc(Br)cc2)c(O)c1`, the Potency is reported as active: 3.16 µM.
In the case of `Cc1ccc(NS(=O)(=O)c2ccc(C)c(NC(=O)COc3ccc4ccccc4c3)c2)c(C)c1`, the Potency is reported as inconclusive: 11.2 µM [activator, partial curve].
